Laboratory results published in publication PMC6261607, “Novel high–throughput myofibroblast assays identify agonists with therapeutic potential in pulmonary fibrosis that act via EP2 and EP4 receptors” (PLoS ONE, 2018).

Assays:
[1] = tested on: normal human lung fibroblasts (NHLF); assay: Phenotypic high-content assay (HCA) of TGF–β1–induced fibroblast–to–myofibroblast differentiation; assay type: cell-based
Procedure: (§1) The plate was washed 3 times with starvation medium, e.g. fibroblast basal medium (FBM, Lonza) supplemented with 0.1% faf BSA, 100 units / ml of penicillin and 100 μg / ml of streptomycin and 250 ng / ml amphotericin B, and then starved for 24 h in 30 μl volume. NHLF were differentiated into myofibroblasts by incubation with 5 ng / ml TGF–β1 (from a stock of 20 μg / ml in 4 mM HCl, 1 mg / ml BSA) for 48 h. Compounds were prepared as 5x stocks in starvation medium and added to the starved cells to a final 1x concentration concomitant with TGF–β1 addition. The final DMSO concentration in the assay was 0.6% in all wells. 48 h after TGF–β1 addition, the medium was removed and the cells were fixed in methanol for 10 min at room temperature (RT). After fixation, cells were washed 3 times with 1 x PBS and either stored at 4°C for up to 3 days or further processed. […] Images were acquired on the Opera Phenix confocal high–content screening system (Perkin Elmer) using the 20–x water immersion lens.
(§2) DAPI stained nuclei were used to identify cells. α–SMA and FN regions were then identified and mapped to the corresponding nuclei for background correction, cell segmentation and cell feature computation to identify, classify and weigh over 400 features per cell. […]

[2] = tested on: normal human lung fibroblasts (NHLF); assay: Nuclear count in the HCA, standard assay; assay type: cell-based; details: Fibroblast, 48 h, 5 ng/ml TGF–β1, 48 h
Procedure: as §1, §2

With `O=C(CCCCCCC(=O)Nc1ccccc1)NO` [Vorinostat] the IC50 ([1]; 48 h, NHLF, 5 ng/ml TGF–β1 for 48 h, compound added with TGF–β1, mean ± SD) was 5.4 µM, the inhibition at 10 µM ([1]; read-out: Effect HCA at 10 µM [% inhibition], 10 µM compound, 5 ng/ml TGF–β1, 48 h) was 101% and the IC50 [2] was greater than 25 µM.
